These are yes or no findings as the source states them, for the method shown. Binding seen in cells or lysates may run through a third protein. Some entries that bind do so weakly or less than the wild type. For some of these results: Where a sequence is shown, tags or fusion partners need not be part of it. Each block holds one molecule with its values, some of them ahead of it.
Tests used:
Flag-tagged KDM4A = target: T1, Flag-tagged KDM4A (UniProt O75164); test: co-IP; Flag- and EGFP-tagged proteins overexpressed together in HEK293T; whole-cell lysates; IP with antibodies against Flag and blot against EGFP (Fig. 2E, 2F); IgG or pCMV6 plasmid as negative control
T1 sequence: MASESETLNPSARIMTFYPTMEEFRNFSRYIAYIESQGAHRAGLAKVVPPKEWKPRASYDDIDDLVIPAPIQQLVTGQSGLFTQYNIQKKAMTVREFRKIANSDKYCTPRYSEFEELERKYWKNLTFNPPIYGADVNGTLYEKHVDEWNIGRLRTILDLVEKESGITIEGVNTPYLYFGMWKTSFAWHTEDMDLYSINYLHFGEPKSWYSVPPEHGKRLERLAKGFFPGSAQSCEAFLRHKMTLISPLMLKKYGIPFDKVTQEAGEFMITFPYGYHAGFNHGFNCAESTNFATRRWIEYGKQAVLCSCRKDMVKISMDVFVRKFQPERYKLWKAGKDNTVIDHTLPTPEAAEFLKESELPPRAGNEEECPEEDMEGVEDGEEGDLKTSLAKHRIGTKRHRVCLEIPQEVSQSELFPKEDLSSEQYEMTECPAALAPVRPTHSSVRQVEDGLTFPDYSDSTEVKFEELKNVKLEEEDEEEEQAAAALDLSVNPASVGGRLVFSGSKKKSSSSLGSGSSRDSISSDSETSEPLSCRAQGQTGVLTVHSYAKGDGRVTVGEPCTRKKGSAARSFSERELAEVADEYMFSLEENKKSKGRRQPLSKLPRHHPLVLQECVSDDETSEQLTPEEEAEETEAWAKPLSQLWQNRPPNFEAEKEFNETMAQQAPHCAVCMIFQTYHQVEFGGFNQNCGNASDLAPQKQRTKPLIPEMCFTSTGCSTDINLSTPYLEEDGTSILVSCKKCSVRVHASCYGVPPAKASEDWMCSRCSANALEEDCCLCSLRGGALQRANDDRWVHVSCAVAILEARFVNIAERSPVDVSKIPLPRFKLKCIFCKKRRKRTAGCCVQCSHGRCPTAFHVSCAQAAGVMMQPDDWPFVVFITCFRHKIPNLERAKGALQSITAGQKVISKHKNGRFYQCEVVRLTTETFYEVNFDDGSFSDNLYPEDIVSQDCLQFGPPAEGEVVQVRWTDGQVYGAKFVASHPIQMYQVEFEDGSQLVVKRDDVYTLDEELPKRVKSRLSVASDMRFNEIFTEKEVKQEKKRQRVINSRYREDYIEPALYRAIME

The chains behind the UniProt entries cited, without tags or fusion partners.
UniProt O75376: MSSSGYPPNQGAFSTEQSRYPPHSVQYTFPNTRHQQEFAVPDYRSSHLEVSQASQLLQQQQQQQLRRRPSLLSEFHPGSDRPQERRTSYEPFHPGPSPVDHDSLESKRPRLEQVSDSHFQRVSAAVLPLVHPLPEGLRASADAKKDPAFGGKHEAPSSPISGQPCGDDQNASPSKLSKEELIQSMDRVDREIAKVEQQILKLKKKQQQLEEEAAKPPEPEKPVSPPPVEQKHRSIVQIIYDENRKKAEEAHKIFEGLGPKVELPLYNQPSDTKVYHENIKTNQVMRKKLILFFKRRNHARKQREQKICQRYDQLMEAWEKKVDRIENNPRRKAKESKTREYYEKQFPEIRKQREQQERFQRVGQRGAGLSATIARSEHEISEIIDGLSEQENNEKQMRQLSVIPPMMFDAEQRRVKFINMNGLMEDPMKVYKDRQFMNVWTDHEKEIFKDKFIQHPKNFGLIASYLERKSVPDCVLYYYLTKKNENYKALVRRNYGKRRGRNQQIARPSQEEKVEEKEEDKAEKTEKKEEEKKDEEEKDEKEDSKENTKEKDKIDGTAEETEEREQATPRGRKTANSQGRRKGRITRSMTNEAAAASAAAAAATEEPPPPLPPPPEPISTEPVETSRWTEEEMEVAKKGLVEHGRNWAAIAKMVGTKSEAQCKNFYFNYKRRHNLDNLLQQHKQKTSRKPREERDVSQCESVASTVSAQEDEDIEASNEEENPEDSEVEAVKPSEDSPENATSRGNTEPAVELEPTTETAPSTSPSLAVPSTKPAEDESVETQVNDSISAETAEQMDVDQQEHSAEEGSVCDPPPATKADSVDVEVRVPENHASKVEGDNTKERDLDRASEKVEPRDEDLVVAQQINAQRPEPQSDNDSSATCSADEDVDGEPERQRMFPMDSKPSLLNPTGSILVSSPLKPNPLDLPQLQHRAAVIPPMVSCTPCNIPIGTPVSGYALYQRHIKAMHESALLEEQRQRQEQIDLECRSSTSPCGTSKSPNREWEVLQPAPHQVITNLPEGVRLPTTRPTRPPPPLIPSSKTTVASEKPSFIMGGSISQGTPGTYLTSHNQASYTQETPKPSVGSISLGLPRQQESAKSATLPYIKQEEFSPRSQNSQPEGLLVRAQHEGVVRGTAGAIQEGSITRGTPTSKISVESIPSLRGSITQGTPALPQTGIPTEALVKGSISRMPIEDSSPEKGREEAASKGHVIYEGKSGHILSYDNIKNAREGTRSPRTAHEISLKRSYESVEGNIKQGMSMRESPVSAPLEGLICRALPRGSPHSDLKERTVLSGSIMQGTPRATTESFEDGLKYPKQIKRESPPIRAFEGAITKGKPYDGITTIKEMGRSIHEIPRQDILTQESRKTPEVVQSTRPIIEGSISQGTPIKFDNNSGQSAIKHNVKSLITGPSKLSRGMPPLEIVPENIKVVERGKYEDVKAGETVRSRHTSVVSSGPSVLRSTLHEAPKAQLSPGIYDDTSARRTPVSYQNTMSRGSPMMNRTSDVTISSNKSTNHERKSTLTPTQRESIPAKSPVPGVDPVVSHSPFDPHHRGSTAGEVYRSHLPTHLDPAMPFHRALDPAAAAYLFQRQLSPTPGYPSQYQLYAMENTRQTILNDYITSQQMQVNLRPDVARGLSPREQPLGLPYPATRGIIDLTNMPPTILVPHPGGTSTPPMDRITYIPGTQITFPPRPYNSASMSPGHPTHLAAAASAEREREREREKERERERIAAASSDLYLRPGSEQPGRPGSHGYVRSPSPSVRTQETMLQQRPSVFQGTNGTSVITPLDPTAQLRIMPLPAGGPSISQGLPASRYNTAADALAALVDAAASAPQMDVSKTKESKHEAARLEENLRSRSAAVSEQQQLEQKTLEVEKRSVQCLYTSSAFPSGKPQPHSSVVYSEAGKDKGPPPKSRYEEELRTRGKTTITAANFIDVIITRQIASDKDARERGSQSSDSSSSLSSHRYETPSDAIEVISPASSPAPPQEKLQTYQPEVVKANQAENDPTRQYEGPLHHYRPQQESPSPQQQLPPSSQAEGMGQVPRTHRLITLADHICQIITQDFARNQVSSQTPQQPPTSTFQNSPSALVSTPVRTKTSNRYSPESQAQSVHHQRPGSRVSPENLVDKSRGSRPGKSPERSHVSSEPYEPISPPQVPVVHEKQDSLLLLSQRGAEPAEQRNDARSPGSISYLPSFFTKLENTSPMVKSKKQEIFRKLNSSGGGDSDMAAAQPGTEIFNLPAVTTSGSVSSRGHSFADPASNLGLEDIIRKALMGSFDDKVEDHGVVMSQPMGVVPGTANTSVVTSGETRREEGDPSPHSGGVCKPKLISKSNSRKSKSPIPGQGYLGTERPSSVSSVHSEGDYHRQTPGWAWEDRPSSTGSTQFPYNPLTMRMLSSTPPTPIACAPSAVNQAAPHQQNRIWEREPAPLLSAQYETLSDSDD
UniProt Q9UJU2: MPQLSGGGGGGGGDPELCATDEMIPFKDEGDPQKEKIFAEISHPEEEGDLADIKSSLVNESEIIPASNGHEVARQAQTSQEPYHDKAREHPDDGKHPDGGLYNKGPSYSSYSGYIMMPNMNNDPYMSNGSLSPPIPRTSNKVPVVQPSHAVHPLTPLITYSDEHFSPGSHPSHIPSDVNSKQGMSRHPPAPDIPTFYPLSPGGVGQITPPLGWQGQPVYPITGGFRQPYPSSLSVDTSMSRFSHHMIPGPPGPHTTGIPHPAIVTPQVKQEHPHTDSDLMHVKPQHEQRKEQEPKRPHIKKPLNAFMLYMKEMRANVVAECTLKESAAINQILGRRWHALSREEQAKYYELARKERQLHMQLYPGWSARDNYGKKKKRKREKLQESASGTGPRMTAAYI

GST-fused KDM4A = target: T2, GST-fused KDM4A (UniProt O75164); test: pull-down; GST-fusion protein (~10 μg, from E. coli BL21 lysate; no purification before mixing is described) mixed with 3-10 μl in vitro transcription/translation product (rabbit reticulocyte lysate) in 0.8% BSA in PBS with protease inhibitor; glutathione-agarose beads, 4 °C, 2 h; western blot
T2 sequence: T1 sequence

[1] = target: T3, Lysine-specific demethylase 4A (KDM4A), endogenous (human (endogenous in CAL-27 and SCC-9)) (UniProt O75164); test: co-IP; endogenous proteins; whole-cell lysates of CAL-27 and SCC-9; IP with antibodies against LEF1, KDM4A or N-CoR on Dynabeads Protein G, 4 °C; lysis buffer 50 mM Tris-HCl pH 7.4, 150 mM NaCl, 2 mM EDTA, 0.3% NP-40; western blot; IgG as negative control
T3 sequence: T1 sequence

[2] = target: Nuclear receptor co-repressor (N-CoR), endogenous (human (endogenous in CAL-27 and SCC-9)) (UniProt O75376); test: as above
[3] = target: Lymphoid enhancer-binding factor 1 (LEF1), endogenous (human (endogenous in CAL-27 and SCC-9)) (UniProt Q9UJU2); test: as above
[4] = target: Flag-tagged LEF1 (human (cDNA from CAL 27 cells)) (UniProt Q9UJU2); test: co-IP; Flag- and EGFP-tagged proteins overexpressed together in HEK293T; whole-cell lysates; IP with antibodies against Flag and blot against EGFP (Fig. 2E, 2F); IgG or pCMV6 plasmid as negative control
[5] = target: GST-fused LEF1 (human (cDNA from CAL 27 cells)) (UniProt Q9UJU2); test: pull-down; GST-fusion protein (~10 μg, from E. coli BL21 lysate; no purification before mixing is described) mixed with 3-10 μl in vitro transcription/translation product (rabbit reticulocyte lysate) in 0.8% BSA in PBS with protease inhibitor; glutathione-agarose beads, 4 °C, 2 h; western blot

Molecule: EGFP-tagged LEF1 (from UniProt Q9UJU2 1-399)
binding (Flag-tagged KDM4A): binds

Molecule: in vitro-transcribed/translated LEF1 (from UniProt Q9UJU2 1-399)
binding (GST-fused KDM4A): binds

B1: Lysine-specific demethylase 4A (KDM4A), endogenous (protein, UniProt O75164 1-1064)
chain: T1 sequence
binding [3]: binds

Other lines, results leading:

binding [1]: binds | binding [2]: binds
Molecule: Lymphoid enhancer-binding factor 1 (LEF1), endogenous (from UniProt Q9UJU2 1-399)

binding [4]: binds
B2: EGFP-tagged KDM4A (protein, UniProt O75164 1-1064)
chain: T1 sequence

binding [5]: binds
B3: in vitro-transcribed/translated KDM4A (protein, UniProt O75164 1-1064)
chain: T1 sequence

— paper PMC10409759
